# Reference: PubChem BioAssay AID1508600 (Functional Genomics Laboratory (NCATS/FGL), 2020)
# Hit rate of the full screen: of about 53,000 sequences, about 3,700 (7%) were called active.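 The calls were made as follows: active = gene knockdowns whose robust z-score for IL-1 alpha signal is at least 2 or at most -2, so actives lie on both sides; inactive = the rest.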 This is one part of the list.
# Experiment: Components of the Cytosolic LPS Sensing Pathway: Gene Identification via Genome-wide siRNA Screen;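 also: robust z of the log signal after scaling to non-targeting control siRNA wells of the plate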
# Settings: RAW264.7 macrophages, IL-1a HTRF, actives lie on both sides, screened at 100 nM (by protocol), cells primed 5 h with Pam3CSK4 first
# Method in brief: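 Mouse macrophage line RAW264.7 is transfected with siRNA (100 nM final), grown 48h, primed with TLR ligand Pam3CSK4 5 h and given intracellular LipidA 24 h. IL-1a in supernatant is read by HTRF and viability by luminescence.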
row,Sequence,z-score
1,GGCAUGUUCUGGGCAGAUGTT against Resp18,inactive: -0.12
2,CCAGAAACAUACGAAGAUUTT against Khdrbs1,inactive: 0.459
3,GGAGUAUGUGCAAUAUAAATT against Asb15,inactive: -0.859
4,GAUUUGGUGUCUGCCGAGATT against Prrt1,inactive: 1.73
5,CGUUACGUAAAUCUUGUGATT against Sstr2,inactive: 0.227
6,GCUGCAUAGACUCAUGGUUTT against Znrf1,inactive: -0.408
7,GGCCUUUUGCCAUUGACAUTT against B3gat2,inactive: -1.79
8,GGUGAUAUAGCUAUUUUCUTT against Fbxw11,inactive: 0.711
9,GGAUCCACACAUAUGAGGATT against Rdh19,inactive: -0.287
10,GGAGUGGAAGUUCAAAGAGTT against Anapc11,inactive: -0.0607
11,GCGAAGCUAUGGAGACAUGTT against Trib2,inactive: -0.723
12,GGCCAUUACUCUGAUUCAUTT against Phyhipl,inactive: -0.499
13,GGUUUCUUCUAAGAACAAATT against Astl,inactive: 1.46
14,CCACUUUCUAGAAAUCCUATT against Tmem41a,active: -2.14
15,GGUGAUGGUAGCAAGACUGTT against Dcpp1,inactive: 0.528
16,GGACCUUCCAGCAAGAUUUTT against Rnf13,inactive: 0.28
17,GGAACUAGCCGUGAUGAUGTT against Htr1f,inactive: -0.929
18,GCAUCUACCAUGGAAAUAUTT against Clcn7,inactive: 0.053
19,GGUGAACAUGUUUACAAACTT against Btf3,inactive: 1.16
20,GGAGAAAUUCAUGACCAUGTT against Slc45a3,inactive: 1.82
21,GGCCAUCCGCAUUUUUUCCTT against Mex3b,inactive: -0.34
22,GGAAUUGAAACACAUCUCUTT against Sntb1,inactive: -0.904

# Some of the entries so far, as tab-separated lines.
row	Sequence	z-score
11	GCGAAGCUAUGGAGACAUGTT against Trib2	inactive: -0.723
12	GGCCAUUACUCUGAUUCAUTT against Phyhipl	inactive: -0.499
13	GGUUUCUUCUAAGAACAAATT against Astl	inactive: 1.46
14	CCACUUUCUAGAAAUCCUATT against Tmem41a	active: -2.14
15	GGUGAUGGUAGCAAGACUGTT against Dcpp1	inactive: 0.528
16	GGACCUUCCAGCAAGAUUUTT against Rnf13	inactive: 0.28
17	GGAACUAGCCGUGAUGAUGTT against Htr1f	inactive: -0.929

# The results go on.

row,Sequence,z-score
1,GGAUAUAAUAUCCUCGUAUTT against Sel1l3,inactive: 0.199
2,CCACGAGAACCUCAAGGGUTT against Ckm,inactive: -0.15
3,GGACGAGUCACACUUUGGATT against Cdyl2,inactive: -0.328
4,GGAUUUCGUCGAAAAGAAUTT against Mical3,inactive: -1.76
5,GGUAGCCAAUGGGAAAAAATT against Cnot6l,inactive: -0.69
6,GGACCUAAGCAUUUUACAUTT against Traf2,inactive: -0.143
7,GGAAUGUGUUAAAAGCACUTT against Fign,inactive: 0.369
8,CGACAAUGUGCCGAUGUUGTT against Pcdha8,inactive: -0.0891
9,CCAGUUGUGCAAUCAACAATT against Fam98c,inactive: -0.367
10,GGUCUUUGUACAUCAAUGUTT against Zfp677,inactive: -0.241
11,GGCAAAAGUACUGAUCACATT against Pcdhga7,inactive: -0.378
12,GGUACAAUACAUUCAAACATT against Serpinb6c,inactive: -0.82
13,GGAAACCAGGAAUGUUAAUTT against Mrps2,inactive: 0.312
14,GGACUUGUGGCUGAAAACCTT against Slc22a7,inactive: 0.173
15,GGAUUUCAAUGAAACUCAGTT against Antxr1,inactive: 0.859
16,CCAUAUUACAACAACUCUCTT against Sytl4,inactive: -0.0818
17,GGACAAAGGGAUAAUGCUGTT against Aldoc,inactive: 0.735
18,GGACCAAACCUAUCAAAAATT against Reep2,inactive: -1.12
19,GGUUGUCACAACAACAAUGTT against Oit3,inactive: -0.971
20,GCCGCAUCCACACAUCUCUTT against Daam2,inactive: 0.465
21,GGUGACUUCGGAGAAAAGGTT against Sncaip,inactive: 0.257
22,GGACAGCUAUUUGUUUUACTT against Azi2,inactive: -0.0916

# 2 entries from above, with bars between the fields:
row | Sequence | z-score
18 | GGACCAAACCUAUCAAAAATT against Reep2 | inactive: -1.12
19 | GGUUGUCACAACAACAAUGTT against Oit3 | inactive: -0.971

# Next entries:

row,Sequence,z-score
1,CGUACAAUCAUGUGUAAUGTT against 1110059E24Rik,inactive: -0.711
2,GGCACGAGCUCUCAUCUUUTT against Slc27a4,inactive: -0.752
3,GGGCAGAAACAAAAGGUUATT against Tmlhe,inactive: 0.917
4,GGCUAGAAAGGGUCUCAAATT against Cyp3a25,inactive: -1.48
5,GGAACUCCAAACCAGAUACTT against Gemin7,inactive: -0.136
6,GGGACAAAGCUUGUGAUCGTT against Lpar3,inactive: -1.48
7,GGAAUUCAGUUUUACCUGUTT against Slc6a13,inactive: -0.152
8,CCGGUCCUCUCAGAAAUUATT against Asz1,inactive: -0.32
9,CCGACGUGCAUGGAGAAAATT against 1700030J22Rik,inactive: -0.541
10,GGAAGACAAAUCAGAAAGUTT against Marchf2,inactive: -0.255
11,GGAUCUACUACCUGUCUUUTT against Pygm,inactive: -0.31
12,GCUUCUACCAAUGUUUAUCTT against Slc5a3,inactive: 0.397
13,CGCAUCGACAGCUAUGUCATT against Rhbdf1,inactive: -1.93
14,GGAAUACUCUUAAAUGACUTT against Zfp455,inactive: 0.0637
15,CCUUUUCAUAUGGUACUCCTT against Ranbp6,inactive: -1.52
16,GGAGAGCUGUUUGACUACATT against Melk,inactive: 1.45
17,GCCUGUACUUUCGACUUCUTT against Fpr1,inactive: -1.15
18,GGAAAUUAUCUGCUUCUCATT against Dqx1,inactive: -1.54
19,GGACAAGUUUACAAUGCAATT against 4930465K10Rik,inactive: 0.379
20,GGCCGGAUUGUCUAUAUUUTT against Per1,inactive: -0.182
21,GCCAGCUGUGGGAUUUCACTT against Gm9903,inactive: -0.961
22,GGCACUCAGGAAAAAAAAGTT against Clstn3,inactive: -0.623

row,Sequence,z-score
1,GCCUUGAGUGCAUUAAUUUTT against Ube2r2,inactive: 0.49
2,CGGAGCUAAUAUUUUAUGCTT against Mospd1,inactive: -1.17
3,GAACAUGGCUUGCUUCAGATT against Mtln,inactive: 1.58
4,CGAGGUCUAUAACAUGACCTT against Smox,inactive: 0.744
5,GGUUGUGAAACAGCAAUUCTT against Ptx3,inactive: -0.599
6,GGUGUAGAGAUUCACAGGUTT against Foxd1,inactive: -0.413
7,CCGGGAAGUGGAUAAUUUUTT against Olfr1368,inactive: 0.609
8,GGCCAUUGAGCUCAACCCUTT against Sgta,inactive: -1.88
9,GGAUAUGGAGACACAGAUGTT against Cd99l2,inactive: 1.45
10,GGAUUUUGUUUCAGGUGGATT against Itgb8,inactive: 1.78
11,GCUUCAAACCUCUUGCUCATT against Dmtn,inactive: 1.22
12,CCACACUAGAAUGAACAUATT against 3830417A13Rik,inactive: 0.206
13,GAACCUUCUGCUUUGAUGCTT against Olfr641,inactive: 0.119
14,GGUGUACCCUGAAUUUGAATT against Wdr62,inactive: -1.67
15,GGAAUUCAGGAUAUAAGGATT against Fut7,inactive: -0.193
16,GCCGAAUUGGACAAGUCUATT against Plxnd1,inactive: 0.37
17,GGUGAUCGGCUCUUAGAGATT against Uncx,inactive: -0.241
18,GGCAGAGAAUCAGCUCCUUTT against Il16,inactive: 0.377
19,GCAUUCUACAACGAUCCCUTT against Hdac5,inactive: 0.908
20,GGAGGACGUGAACUUUGACTT against Stk32c,inactive: 0.648
21,CCAUAGUUUUGGUUACCAATT against E330037G11Rik,inactive: -0.213
22,GGACCAGAUUGCUAAUGAGTT against Fam13a,inactive: -0.0932

row,Sequence,z-score
1,GGGCUGGAUUUUCUCCAGATT against Med26,inactive: -0.355
2,UUCACUGUAAGAAUUGUCUTT against Vmn1r93,active: -2.11
3,CCAAGUCUUUGCCUACGUGTT against Dsn1,active: 2.39
4,GGAAAUCAGAACUGUAUCUTT against 2310022B05Rik,inactive: -1.8
5,GGAAUGGACAAAAUGAUUCTT against Cct4,inactive: 1.53
6,GGAUCAAGAAUUAGAAAAGTT against Abcc9,inactive: -0.85
7,GGUGUAAUGUCUUUGCUAATT against Spag6l,inactive: 0.49
8,GAGUUCUCUCUCACAGCCCTT against Gp1bb,inactive: -0.409
9,GCGAAAGCAGGAUACUCCUTT against Mtmr11,inactive: 1.01
10,GUGUUCGAACAACAUUGUATT against Map3k7,inactive: 0.352
11,GGCAAAGCUCCAUCAUCUGTT against Aste1,inactive: -0.682
12,GCUAUGAAAGAGGGAAGCUTT against Cyp2c54,inactive: 0.164
13,GGCUAUCUGAUCAAGCCCATT against Pcgf5,inactive: 0.111
14,GGUGAUGUCAAGAGUUUUCTT against Hacd2,active: 3.56
15,CCUACCAUAGCAACACUAUTT against Kcna2,active: 3.14
16,GCGUGAACGUAUUUGUUACTT against Pcdhgc3,inactive: 0.203
17,GCUUGUUUUCCUUAAGGGATT against Cr1l,inactive: 0.685
18,GCCCUUCGGGACUUUAUUGTT against Gusb,inactive: 0.763
